Measurements as given in US10221420B2, “Aptamer construct” (priority 2014, dated 2019).

Target: T1, CD133 (prominin-1) (UniProt O43490)
T1 sequence (looked up, limits assumed): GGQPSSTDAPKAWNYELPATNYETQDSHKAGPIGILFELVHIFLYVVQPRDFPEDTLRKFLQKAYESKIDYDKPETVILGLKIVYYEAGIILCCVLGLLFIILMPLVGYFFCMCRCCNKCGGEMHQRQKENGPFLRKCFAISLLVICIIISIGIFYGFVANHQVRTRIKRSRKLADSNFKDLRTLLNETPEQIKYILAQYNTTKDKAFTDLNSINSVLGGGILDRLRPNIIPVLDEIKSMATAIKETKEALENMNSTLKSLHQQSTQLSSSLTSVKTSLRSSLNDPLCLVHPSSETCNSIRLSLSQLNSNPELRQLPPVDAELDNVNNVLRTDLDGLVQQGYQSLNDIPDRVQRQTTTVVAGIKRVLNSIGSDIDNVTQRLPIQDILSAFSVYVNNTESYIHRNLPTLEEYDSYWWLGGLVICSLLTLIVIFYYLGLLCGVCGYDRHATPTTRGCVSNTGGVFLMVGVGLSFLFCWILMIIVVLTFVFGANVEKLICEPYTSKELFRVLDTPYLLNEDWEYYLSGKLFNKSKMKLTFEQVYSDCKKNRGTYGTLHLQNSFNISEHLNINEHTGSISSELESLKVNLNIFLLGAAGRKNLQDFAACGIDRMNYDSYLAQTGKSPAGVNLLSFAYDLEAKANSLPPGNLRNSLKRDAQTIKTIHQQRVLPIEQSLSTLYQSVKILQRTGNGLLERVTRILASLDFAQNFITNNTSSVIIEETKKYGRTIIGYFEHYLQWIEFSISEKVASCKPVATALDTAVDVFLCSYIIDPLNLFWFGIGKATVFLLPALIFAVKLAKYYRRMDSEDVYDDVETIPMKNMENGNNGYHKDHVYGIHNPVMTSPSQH
Assay: flow cytometry
Conditions: 2'-OMe instead of 2'-F in loop; otherwise identical sequence; doxorubicin intercalated in stem; HT29 cells per text (figure legend says HEK293), 50 mM NaCl, 2.5 mM MgCl2, on ice 1 h; protein on the cell surface; label: …

## CGCGCGCCGCACGUAUACUAUGCGGCGCGCG [negative control aptamer-Dox conjugate]
  pKd: < 6.00

pKd: −log10 of the molar value. Where cells or extracts were used, other partners may take part. Tags and fusion partners may be left off the protein sequences shown.
